Measurements: the supplement of paper PMC12067093, “Discovery and optimisation of a covalent ligand for TRIM25 and its application to targeted protein ubiquitination” (Chemical Science, 2025)
Some of the results follow.

By UniProt entry, the sequences of proteins in these tests, tags left out. Where a name states a change or a piece, a line headed by the entry shows the natural chain unless it says otherwise.
UniProt Q8IYH5: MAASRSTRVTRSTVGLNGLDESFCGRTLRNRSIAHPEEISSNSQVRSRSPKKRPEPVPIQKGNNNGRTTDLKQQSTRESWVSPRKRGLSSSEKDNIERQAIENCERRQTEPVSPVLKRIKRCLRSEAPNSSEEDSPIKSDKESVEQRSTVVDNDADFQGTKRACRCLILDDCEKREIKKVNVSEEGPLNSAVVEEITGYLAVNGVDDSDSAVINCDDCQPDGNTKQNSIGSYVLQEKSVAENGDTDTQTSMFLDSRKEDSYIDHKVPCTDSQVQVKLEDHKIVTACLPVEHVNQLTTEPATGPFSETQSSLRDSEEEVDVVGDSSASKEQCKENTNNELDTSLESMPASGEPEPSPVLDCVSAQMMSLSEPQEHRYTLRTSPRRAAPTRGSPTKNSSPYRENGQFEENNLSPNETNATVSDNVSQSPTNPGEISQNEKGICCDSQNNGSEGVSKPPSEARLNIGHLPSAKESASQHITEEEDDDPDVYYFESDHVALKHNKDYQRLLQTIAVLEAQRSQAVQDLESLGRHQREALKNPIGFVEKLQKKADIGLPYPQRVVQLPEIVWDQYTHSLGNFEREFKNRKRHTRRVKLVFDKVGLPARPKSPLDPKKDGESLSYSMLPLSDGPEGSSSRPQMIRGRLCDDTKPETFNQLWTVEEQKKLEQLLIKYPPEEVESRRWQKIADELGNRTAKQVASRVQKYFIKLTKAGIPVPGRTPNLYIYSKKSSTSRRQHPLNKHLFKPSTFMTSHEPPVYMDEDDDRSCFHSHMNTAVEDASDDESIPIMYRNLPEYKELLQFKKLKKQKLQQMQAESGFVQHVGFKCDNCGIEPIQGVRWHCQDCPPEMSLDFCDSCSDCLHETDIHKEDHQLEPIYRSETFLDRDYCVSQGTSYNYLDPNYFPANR
UniProt Q9UHR6: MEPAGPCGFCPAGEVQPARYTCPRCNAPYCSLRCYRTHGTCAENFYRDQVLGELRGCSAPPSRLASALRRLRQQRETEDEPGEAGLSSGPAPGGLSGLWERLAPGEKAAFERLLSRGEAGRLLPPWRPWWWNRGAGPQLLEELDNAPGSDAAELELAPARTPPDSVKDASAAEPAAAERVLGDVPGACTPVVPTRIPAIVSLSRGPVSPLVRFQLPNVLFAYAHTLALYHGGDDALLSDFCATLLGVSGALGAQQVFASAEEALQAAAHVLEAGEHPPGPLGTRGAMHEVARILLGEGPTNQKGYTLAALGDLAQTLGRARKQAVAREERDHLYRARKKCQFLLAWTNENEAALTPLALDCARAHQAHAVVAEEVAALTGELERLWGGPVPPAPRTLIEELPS
UniProt O43257, whole entry: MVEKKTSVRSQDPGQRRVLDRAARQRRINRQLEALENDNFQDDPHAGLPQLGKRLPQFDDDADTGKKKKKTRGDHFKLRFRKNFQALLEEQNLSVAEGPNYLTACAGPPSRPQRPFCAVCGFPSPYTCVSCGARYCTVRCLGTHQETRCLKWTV
UniProt Q15942: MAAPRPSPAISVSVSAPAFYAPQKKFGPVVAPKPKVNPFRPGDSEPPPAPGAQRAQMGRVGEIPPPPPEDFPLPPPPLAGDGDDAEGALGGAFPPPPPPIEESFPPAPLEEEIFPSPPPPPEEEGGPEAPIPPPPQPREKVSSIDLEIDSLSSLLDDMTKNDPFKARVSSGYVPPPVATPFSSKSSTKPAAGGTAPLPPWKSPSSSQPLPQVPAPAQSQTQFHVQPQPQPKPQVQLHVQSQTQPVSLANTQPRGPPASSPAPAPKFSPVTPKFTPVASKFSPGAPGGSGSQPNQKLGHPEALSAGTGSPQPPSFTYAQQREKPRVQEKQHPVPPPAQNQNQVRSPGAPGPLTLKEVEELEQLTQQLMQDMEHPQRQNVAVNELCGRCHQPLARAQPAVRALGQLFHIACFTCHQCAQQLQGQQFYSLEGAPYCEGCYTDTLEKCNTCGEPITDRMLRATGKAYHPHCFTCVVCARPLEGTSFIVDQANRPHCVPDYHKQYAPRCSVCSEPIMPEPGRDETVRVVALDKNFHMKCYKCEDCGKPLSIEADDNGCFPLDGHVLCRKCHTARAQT
UniProt Q9BU19: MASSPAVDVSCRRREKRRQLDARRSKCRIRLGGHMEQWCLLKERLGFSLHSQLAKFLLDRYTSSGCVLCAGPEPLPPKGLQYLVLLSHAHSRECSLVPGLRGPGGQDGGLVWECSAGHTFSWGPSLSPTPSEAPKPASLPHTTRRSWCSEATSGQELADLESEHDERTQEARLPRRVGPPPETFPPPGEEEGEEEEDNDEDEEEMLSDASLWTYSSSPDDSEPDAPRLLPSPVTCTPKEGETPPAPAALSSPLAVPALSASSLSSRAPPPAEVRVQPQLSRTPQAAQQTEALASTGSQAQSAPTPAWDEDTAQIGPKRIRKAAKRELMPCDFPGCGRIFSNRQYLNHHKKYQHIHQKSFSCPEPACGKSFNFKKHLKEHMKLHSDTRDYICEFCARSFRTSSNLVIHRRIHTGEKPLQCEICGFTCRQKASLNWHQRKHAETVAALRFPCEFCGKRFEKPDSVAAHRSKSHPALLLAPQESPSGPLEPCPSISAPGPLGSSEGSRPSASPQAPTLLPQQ
UniProt P36508: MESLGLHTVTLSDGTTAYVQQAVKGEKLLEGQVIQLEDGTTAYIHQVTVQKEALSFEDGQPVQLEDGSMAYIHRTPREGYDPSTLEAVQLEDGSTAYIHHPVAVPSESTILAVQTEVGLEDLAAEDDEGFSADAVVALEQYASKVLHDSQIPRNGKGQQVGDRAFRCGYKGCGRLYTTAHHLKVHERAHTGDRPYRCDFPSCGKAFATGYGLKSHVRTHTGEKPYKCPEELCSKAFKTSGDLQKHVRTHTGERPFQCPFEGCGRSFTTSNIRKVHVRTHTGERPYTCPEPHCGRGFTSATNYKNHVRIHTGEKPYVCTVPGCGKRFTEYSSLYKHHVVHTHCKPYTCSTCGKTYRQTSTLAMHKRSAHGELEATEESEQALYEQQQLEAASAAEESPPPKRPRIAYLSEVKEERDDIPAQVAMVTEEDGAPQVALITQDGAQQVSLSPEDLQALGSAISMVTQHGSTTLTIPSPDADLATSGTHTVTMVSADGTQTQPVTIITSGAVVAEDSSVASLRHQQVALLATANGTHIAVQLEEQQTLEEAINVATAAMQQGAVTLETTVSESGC
UniProt Q15649: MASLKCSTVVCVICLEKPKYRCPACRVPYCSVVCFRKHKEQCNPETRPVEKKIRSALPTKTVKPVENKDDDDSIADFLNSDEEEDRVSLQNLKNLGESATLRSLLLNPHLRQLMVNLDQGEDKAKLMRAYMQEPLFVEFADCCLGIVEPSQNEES
UniProt O43149: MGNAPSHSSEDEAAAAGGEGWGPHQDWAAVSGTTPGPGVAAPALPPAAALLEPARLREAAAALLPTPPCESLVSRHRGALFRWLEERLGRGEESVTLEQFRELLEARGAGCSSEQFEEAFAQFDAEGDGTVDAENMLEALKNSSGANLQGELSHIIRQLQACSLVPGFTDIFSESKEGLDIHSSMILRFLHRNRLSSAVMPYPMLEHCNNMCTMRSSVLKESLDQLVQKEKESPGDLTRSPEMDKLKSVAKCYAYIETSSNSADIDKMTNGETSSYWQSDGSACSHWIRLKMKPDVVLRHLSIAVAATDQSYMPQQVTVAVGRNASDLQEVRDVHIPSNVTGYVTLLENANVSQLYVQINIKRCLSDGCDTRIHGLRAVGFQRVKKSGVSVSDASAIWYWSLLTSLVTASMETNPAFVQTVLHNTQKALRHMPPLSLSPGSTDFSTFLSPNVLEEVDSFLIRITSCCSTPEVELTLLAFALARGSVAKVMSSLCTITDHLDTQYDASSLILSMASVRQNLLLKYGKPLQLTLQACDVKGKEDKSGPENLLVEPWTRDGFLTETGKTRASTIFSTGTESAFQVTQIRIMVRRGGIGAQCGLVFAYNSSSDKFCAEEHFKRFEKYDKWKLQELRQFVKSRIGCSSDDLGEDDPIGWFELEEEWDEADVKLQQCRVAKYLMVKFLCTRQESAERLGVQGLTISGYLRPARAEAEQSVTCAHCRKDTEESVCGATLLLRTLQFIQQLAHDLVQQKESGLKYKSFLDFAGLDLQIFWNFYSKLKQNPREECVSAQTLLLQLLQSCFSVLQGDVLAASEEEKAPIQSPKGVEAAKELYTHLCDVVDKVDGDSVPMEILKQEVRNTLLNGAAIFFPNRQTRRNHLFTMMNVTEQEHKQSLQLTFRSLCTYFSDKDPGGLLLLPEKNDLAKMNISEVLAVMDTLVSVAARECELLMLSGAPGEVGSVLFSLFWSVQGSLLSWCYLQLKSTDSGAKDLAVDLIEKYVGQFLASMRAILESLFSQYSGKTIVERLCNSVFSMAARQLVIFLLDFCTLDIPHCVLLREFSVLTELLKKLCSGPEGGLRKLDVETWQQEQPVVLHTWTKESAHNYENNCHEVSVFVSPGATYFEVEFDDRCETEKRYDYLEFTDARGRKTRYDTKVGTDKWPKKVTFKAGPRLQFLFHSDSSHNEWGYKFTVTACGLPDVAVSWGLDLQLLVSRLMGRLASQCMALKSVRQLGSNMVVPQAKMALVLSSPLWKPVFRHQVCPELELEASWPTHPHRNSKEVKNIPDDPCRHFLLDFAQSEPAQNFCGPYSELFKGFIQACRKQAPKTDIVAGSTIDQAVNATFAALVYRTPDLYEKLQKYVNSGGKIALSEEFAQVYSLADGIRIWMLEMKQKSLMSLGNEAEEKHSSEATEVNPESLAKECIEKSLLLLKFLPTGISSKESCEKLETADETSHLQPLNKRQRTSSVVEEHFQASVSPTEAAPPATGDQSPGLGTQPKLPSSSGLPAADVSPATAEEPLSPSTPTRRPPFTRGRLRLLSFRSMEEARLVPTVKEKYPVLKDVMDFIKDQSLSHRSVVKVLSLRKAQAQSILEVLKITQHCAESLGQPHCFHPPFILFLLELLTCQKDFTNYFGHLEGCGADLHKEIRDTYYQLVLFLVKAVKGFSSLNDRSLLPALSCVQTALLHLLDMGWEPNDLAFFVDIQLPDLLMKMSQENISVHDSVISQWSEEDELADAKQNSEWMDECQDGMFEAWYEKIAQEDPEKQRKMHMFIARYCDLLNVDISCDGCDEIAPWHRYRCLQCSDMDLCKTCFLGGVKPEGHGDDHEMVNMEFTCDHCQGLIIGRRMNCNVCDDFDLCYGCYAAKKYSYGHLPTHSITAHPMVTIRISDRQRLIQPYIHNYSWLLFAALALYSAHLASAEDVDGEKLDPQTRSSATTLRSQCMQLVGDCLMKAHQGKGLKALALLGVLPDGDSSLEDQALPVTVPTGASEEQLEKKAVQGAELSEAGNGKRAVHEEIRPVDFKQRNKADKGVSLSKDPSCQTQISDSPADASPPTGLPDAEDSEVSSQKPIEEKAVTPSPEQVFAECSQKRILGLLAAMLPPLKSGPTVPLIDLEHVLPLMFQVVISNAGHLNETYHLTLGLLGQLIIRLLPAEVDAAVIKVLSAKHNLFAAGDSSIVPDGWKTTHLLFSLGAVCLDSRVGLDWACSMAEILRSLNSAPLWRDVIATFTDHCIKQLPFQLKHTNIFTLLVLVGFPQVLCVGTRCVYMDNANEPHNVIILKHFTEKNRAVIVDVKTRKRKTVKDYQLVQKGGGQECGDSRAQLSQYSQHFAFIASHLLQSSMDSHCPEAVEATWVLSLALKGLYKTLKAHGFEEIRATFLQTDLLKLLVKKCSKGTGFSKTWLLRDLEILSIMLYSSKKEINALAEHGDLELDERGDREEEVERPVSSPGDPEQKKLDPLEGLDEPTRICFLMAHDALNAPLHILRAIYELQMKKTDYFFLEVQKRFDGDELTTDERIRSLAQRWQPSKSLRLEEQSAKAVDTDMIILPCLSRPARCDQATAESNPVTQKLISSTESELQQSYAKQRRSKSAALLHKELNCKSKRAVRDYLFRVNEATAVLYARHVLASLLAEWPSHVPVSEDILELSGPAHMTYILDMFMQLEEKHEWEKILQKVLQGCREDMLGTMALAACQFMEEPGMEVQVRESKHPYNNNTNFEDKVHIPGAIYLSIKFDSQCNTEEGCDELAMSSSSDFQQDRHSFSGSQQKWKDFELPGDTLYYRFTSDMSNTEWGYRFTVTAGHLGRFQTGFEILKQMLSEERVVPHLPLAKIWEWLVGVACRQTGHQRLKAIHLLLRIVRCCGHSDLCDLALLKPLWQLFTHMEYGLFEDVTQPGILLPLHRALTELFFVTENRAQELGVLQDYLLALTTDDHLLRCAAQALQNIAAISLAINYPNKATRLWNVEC
UniProt O95218: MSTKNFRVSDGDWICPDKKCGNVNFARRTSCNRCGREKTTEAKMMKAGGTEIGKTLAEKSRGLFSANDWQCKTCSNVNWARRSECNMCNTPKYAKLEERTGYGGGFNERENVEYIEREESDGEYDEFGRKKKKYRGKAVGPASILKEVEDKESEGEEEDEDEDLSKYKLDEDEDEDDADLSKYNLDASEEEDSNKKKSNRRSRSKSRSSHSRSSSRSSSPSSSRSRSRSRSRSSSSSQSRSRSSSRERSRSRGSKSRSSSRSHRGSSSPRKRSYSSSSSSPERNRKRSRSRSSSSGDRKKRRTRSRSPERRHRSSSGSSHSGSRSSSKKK

Compound: CC1Cc2ccccc2N1C(=O)C1CCCN(C1)C(=O)CCl (mixture of isomers) [TRIM25 ligand 11 (diastereomer mixture)]
Assay: probe-labelled cysteine peptide fold change vs DMSO (competition) (log2 fold change); higher = less target engagement (more negative = stronger competition)
Conditions: THP-1, incubation time: 4 h
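Further: competitive chemoproteomic profiling in live THP-1 cells with an iodoacetamide desthiobiotin (IA-DTB) probe, comparing probe-labelled peptide intensities in compound-treated cells against DMSO-treated controls.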

## ZPR1_O75312_288_EVIIMATNCENCGHR (UniProt O75312)
10 µM
  probe-labelled cysteine peptide fold change: -0.318
50 µM
  probe-labelled cysteine peptide fold change: -0.0377

## ZNRD1_Q9P1U0_90_CGHEGMAYHTR (UniProt Q9P1U0)
10 µM
  probe-labelled cysteine peptide fold change: -0.117
50 µM
  probe-labelled cysteine peptide fold change: -0.117

## ZZZ3_Q8IYH5_104_QAIENCER (UniProt Q8IYH5)
10 µM
  probe-labelled cysteine peptide fold change: 0.0915
50 µM
  probe-labelled cysteine peptide fold change: -0.159

## ZNHIT2_Q9UHR6_361_CQFLLAWTNENEAALTPLALDCAR (UniProt Q9UHR6)
10 µM
  probe-labelled cysteine peptide fold change: -0.211
50 µM
  probe-labelled cysteine peptide fold change: -0.0994

## ZNHIT1_O43257_140_CLGTHQETR (UniProt O43257)
10 µM
  probe-labelled cysteine peptide fold change: 0.0173
50 µM
  probe-labelled cysteine peptide fold change: -0.0417

## ZYX_Q15942_444_CNTCGEPITDR (UniProt Q15942)
10 µM
  probe-labelled cysteine peptide fold change: -0.134
50 µM
  probe-labelled cysteine peptide fold change: -0.071

## ZNF787_Q6DD87_350_IHAVGAPSVCSSCGQSYYR (UniProt Q6DD87)
10 µM
  probe-labelled cysteine peptide fold change: -0.111
50 µM
  probe-labelled cysteine peptide fold change: -0.085

## ZNF830_Q96NB3_314_QIGEIDEQIECYR (UniProt Q96NB3)
10 µM
  probe-labelled cysteine peptide fold change: -0.236
50 µM
  probe-labelled cysteine peptide fold change: 0.05

## ZNF692_Q9BU19_366_SFSCPEPACGK (UniProt Q9BU19)
10 µM
  probe-labelled cysteine peptide fold change: -0.00798
50 µM
  probe-labelled cysteine peptide fold change: 0.0618

## ZNF76_P36508_292_THTGERPYTCPEPHCGR (UniProt P36508)
10 µM
  probe-labelled cysteine peptide fold change: 0.0325
50 µM
  probe-labelled cysteine peptide fold change: 0.116

## ZNHIT3_Q15649_42_EQCNPETRPVEK (UniProt Q15649)
10 µM
  probe-labelled cysteine peptide fold change: -0.0198
50 µM
  probe-labelled cysteine peptide fold change: 0.0505

## ZW10_O43264_588_LGTECFLAQMR (UniProt O43264)
10 µM
  probe-labelled cysteine peptide fold change: 0.647
50 µM
  probe-labelled cysteine peptide fold change: 0.508

## ZZEF1_O43149_1287_NIPDDPCR (UniProt O43149)
10 µM
  probe-labelled cysteine peptide fold change: -0.0538
50 µM
  probe-labelled cysteine peptide fold change: -0.11

## ZRANB2_O95218_71_GLFSANDWQCK (UniProt O95218)
10 µM
  probe-labelled cysteine peptide fold change: -0.108
50 µM
  probe-labelled cysteine peptide fold change: -0.119

## ZSWIM8_A7E2V4_979_TTVSEAEHPLLCEGTR (UniProt A7E2V4)
10 µM
  probe-labelled cysteine peptide fold change: -0.0561
50 µM
  probe-labelled cysteine peptide fold change: -0.0308

## ZYX_Q15942_553+562_PLSIEADDNGCFPLDGHVLCR (UniProt Q15942)
10 µM
  probe-labelled cysteine peptide fold change: 0.201
50 µM
  probe-labelled cysteine peptide fold change: 0.0148

## ZYX_Q15942_540+553_CEDCGKPLSIEADDNGCFPLDGHVLCR (UniProt Q15942)
10 µM
  probe-labelled cysteine peptide fold change: -0.143
50 µM
  probe-labelled cysteine peptide fold change: -0.0851

## ZYX_Q15942_470+473_AYHPHCFTCVVCAR (UniProt Q15942)
10 µM
  probe-labelled cysteine peptide fold change: -0.037
50 µM
  probe-labelled cysteine peptide fold change: 0.0173

## ZNF839_A8K0R7_48+54_TEPQSCFLSDLCQPPAQGFVQR (UniProt A8K0R7)
10 µM
  probe-labelled cysteine peptide fold change: -0.326
50 µM
  probe-labelled cysteine peptide fold change: -0.294

## ZUP1_Q96AP4_478_VVCTSKPPIYLQHQGHSR (UniProt Q96AP4)
10 µM
  probe-labelled cysteine peptide fold change: -0.0271
50 µM
  probe-labelled cysteine peptide fold change: 0.241

## ZZZ3_Q8IYH5_24_STVGLNGLDESFCGR (UniProt Q8IYH5)
10 µM
  probe-labelled cysteine peptide fold change: 0.0269
50 µM
  probe-labelled cysteine peptide fold change: -0.268

## ZZEF1_O43149_2932_CAAQALQNIAAISLAINYPNK (UniProt O43149)
10 µM
  probe-labelled cysteine peptide fold change: 0.109
50 µM
  probe-labelled cysteine peptide fold change: 0.032

## ZNHIT2_Q9UHR6_41_THGTCAENFYR (UniProt Q9UHR6)
10 µM
  probe-labelled cysteine peptide fold change: 0.0136
50 µM
  probe-labelled cysteine peptide fold change: -0.0745

## ZNF710_Q8N1W2_91_ALEEPAEEEVLEVEAACEK (UniProt Q8N1W2)
10 µM
  probe-labelled cysteine peptide fold change: 0.158
50 µM
  probe-labelled cysteine peptide fold change: -0.171

## ZZEF1_O43149_719_AEAEQSVTCAHCR (UniProt O43149)
10 µM
  probe-labelled cysteine peptide fold change: 0.0127
50 µM
  probe-labelled cysteine peptide fold change: -0.0587

## ZYX_Q15942_467+473_AYHPHCFTCVVCAR (UniProt Q15942)
10 µM
  probe-labelled cysteine peptide fold change: 0.111
50 µM
  probe-labelled cysteine peptide fold change: -0.0518

## ZNF865_P0CJ78_383_PFSCSVCSK (UniProt P0CJ78)
10 µM
  probe-labelled cysteine peptide fold change: -0.0827
50 µM
  probe-labelled cysteine peptide fold change: -0.0857

## ZNF76_P36508_342_HHVVHTHCK (UniProt P36508)
10 µM
  probe-labelled cysteine peptide fold change: 0.158
50 µM
  probe-labelled cysteine peptide fold change: 0.135
